Assay results as given in PubChem BioAssay AID590 (National Center for Advancing Translational Sciences (NCATS), 2007).
The campaign covered roughly 59,000 compounds. About 6,500 (11%) were called active. This list was built around the results that the source calls inconclusive (neither active nor inactive); the mix of calls is not that of the screen. Cut-off read from the data, not from the text of the source: active = max dye-equivalent concentration above about 10 nM; inconclusive = mostly about 1.1 nM to 9.6 nM; inactive = weaker than that.

Assay: qHTS Assay for Spectroscopic Profiling in A350 Spectral Region
Settings: Compound autofluorescence, 340/450 nm, Alexa 350 dye-equivalents; hits give high values

Row | Compound | max dye-equivalent concentration
1 | COc1ccccc1C(=O)N1CCN(c2nc3cc(C)c(C)cc3cc2C#N)CC1 | active: 100 nM
2 | COC(=O)C1=C(N)Oc2cc(C)n(Cc3cccnc3)c(=O)c2C1c1ccccc1OC (configuration not stated) | active: 34 nM
3 | COc1cc(C2C3CN(C)CC=C3C(C#N)=C(N)C2(C#N)C#N)ccc1OC(C)C (configuration not stated) | active: 1900 nM
4 | CCNC(=O)NC(=O)COc1ccccc1C#N | inconclusive: 1.4 nM
5 | COC(=O)C(NC(C)=O)(Nc1nc2ccc(S(C)(=O)=O)cc2s1)C(F)(F)F (configuration not stated) | inconclusive: 2.8 nM
6 | O=C1CN(C(=O)COC(=O)c2ccccc2NC(=O)c2ccco2)c2ccccc2N1 | inconclusive: 3.6 nM
7 | COc1ccc(-n2c(=O)c(-c3cccs3)nc3cnc(Nc4ccccc4)nc32)cc1 | inactive
8 | COc1ccc(S(=O)(=O)N2CCC(C(=O)c3ccc4c(c3)OCCO4)CC2)cc1 | inactive
9 | O=C(Cn1cc(C(=S)N2CCOCC2)c2ccccc21)N1CCOCC1 | inactive
10 | CC(C)(C)C(=O)Nc1ccccc1N1CCN(C(=O)c2ccc(Cl)cc2)CC1 | inconclusive: 1.1 nM
11 | CCOC(=O)C1=C(C)NC(SCc2cc(=O)[nH][nH]2)=C(C#N)C1c1cccs1 (configuration not stated) | inconclusive: 6.3 nM
12 | CCOC(=O)CSC1=C(C#N)C(c2ccco2)C(C(=O)Nc2cccc(C(F)(F)F)c2)=C(C)N1 (configuration not stated) | active: 16 nM
13 | OC1CN=C2Sc3ccccc3N2C1 (configuration not stated) | inconclusive: 5.3 nM
14 | CCSc1nc2sc3c(c2c2nnc(SCC(=O)NCc4ccco4)n12)CCCC3 | inconclusive: 6.8 nM
15 | CC(C)C(=O)NC(C)C(c1cccs1)N1CCN(c2ccccc2)CC1 (configuration not stated) | inconclusive: 4.6 nM
16 | COc1ccccc1-c1ccc(=O)n(CC(=O)NC(C)(C)C)n1 | inactive
17 | CCOC(=O)c1c(C)oc2ccc(OCC(=O)N(CC)CC)cc12 | inactive
18 | COc1ccc(C(OC(=O)c2ccco2)C(=O)NC2CCCCC2)cc1OC (configuration not stated) | inconclusive: 1.4 nM
19 | O=c1oc(-c2ccccc2)nc2c1cnn2-c1ccccc1 | active: 14 nM
20 | COc1ccc(-c2nc3cnc(N(C)C)nc3n(-c3ccccc3)c2=O)cc1 | inactive
21 | CC1(C)OC(=O)C(C(c2ccccc2)C(C#N)C(N)=O)=C(O)O1 (configuration not stated) | inconclusive: 1.2 nM
22 | COc1ccc(C2(O)CCN(Cc3nnnn3Cc3ccc(C)cc3)CC2)cc1 | inconclusive: 3.8 nM
23 | COc1ccc(N(Cc2cc3cc(OC)ccc3[nH]c2=O)C(=O)c2cccnc2)cc1 | active: 360 nM

A different layout for part of the listing above.
Row	Compound	max dye-equivalent concentration
17	CCOC(=O)c1c(C)oc2ccc(OCC(=O)N(CC)CC)cc12	inactive
18	COc1ccc(C(OC(=O)c2ccco2)C(=O)NC2CCCCC2)cc1OC (configuration not stated)	inconclusive: 1.4 nM
19	O=c1oc(-c2ccccc2)nc2c1cnn2-c1ccccc1	active: 14 nM
20	COc1ccc(-c2nc3cnc(N(C)C)nc3n(-c3ccccc3)c2=O)cc1	inactive

The list goes on:

Row | Compound | max dye-equivalent concentration
24 | CCCN(CCC)CCCNC(=O)CS(=O)Cc1nc(-c2ccc(OC)c(OC)c2)oc1C (configuration not stated) | inactive
25 | CCCC(=O)Nc1cc(OC)c(NC(=O)NC2CCCCC2)cc1OC | inconclusive: 2.4 nM
26 | CCOC(=O)c1cc(C(O)(C(F)(F)F)C(F)(F)F)c(/N=C/N(C)C)o1 | inconclusive: 2.2 nM
27 | COC(=O)[C@H](Cc1ccccc1)NC(=O)NCC1CCCO1 (some centres not stated) | inconclusive: 3.1 nM
28 | Cc1c(NS(=O)(=O)c2ccc3c(c2)c(=O)n(C)c(=O)n3C)c(=O)n(-c2ccccc2)n1C | inactive
29 | Cc1noc(C)c1CSc1nc2sc(C)c(C)c2c(=O)n1C1CCCC1 | inactive
30 | FC(F)(F)c1ccccc1-c1cncnc1-n1ccnc1 | inactive
31 | CS(=O)(=O)Nc1cccc(-c2cncnc2Nc2ccc(F)cc2)c1 | inactive
32 | CCOC(=O)NCC(C#CCN(CC)CC)N(CC)CC (configuration not stated) | inconclusive: 2.1 nM
33 | COCCN(CC(=O)NCc1ccccc1)C(=O)CCC(=O)Nc1ccccn1 | active: 210 nM
34 | CCOc1ccccc1C(=O)N1CCN(c2cccc(Cl)c2)CC1 | inactive
35 | Cc1cc(C)c(S(=O)(=O)Nc2ccc[nH]c2=O)c(C)c1 | inactive
36 | CCc1cccc(N(C)C(N)=Nc2cccc3ccccc23)c1 | inactive
37 | CC(=O)c1ccc(Nc2nc(C)nc3c2oc2ccccc23)cc1 | active: 100 nM
38 | CCOc1ccc(C(=O)N2CCCC2C(=O)O)cc1 (configuration not stated) | inconclusive: 2.9 nM
39 | CC1(C)C(=O)C2(CCCCC2)C(=O)OC1c1cccs1 (configuration not stated) | inactive
40 | CCOC(=O)c1cc2c(ccn2C)n1CC(=O)N1CCN(c2ccc(F)cc2)CC1 | inconclusive: 1.4 nM
41 | CC(C)CCN1C(=O)c2ccc(C(=O)OCn3nnc4ccccc4c3=O)cc2C1=O | inactive
42 | Cc1cc(C)c2c(c1)-c1cc(C)nn1C(c1ccc3c(c1)OCO3)N2 (configuration not stated) | active: 64 nM
43 | CC(=O)N1CCC2(CCCN(c3ccccc3)C2)CC1 | inactive
44 | Cn1c(SCC(=O)NCc2ccc3c(c2)OCO3)nnc1-c1c[nH]c2ccccc12 | inconclusive: 1.2 nM
45 | CCNc1ncc2nc(-c3ccc(OC)cc3)c(=O)n(CCc3ccccc3)c2n1 | active: 36 nM
46 | CN1CCN(c2ncc3nc(CCc4ccccc4)c(=O)n(CCC#N)c3n2)CC1 | active: 42 nM

A few values from the list.
`COC(=O)[C@H](Cc1ccccc1)NC(=O)NCC1CCCO1` (some centres not stated) | max dye-equivalent concentration: inconclusive: 3.1 nM
`Cc1cc(C)c2c(c1)-c1cc(C)nn1C(c1ccc3c(c1)OCO3)N2` (configuration not stated) | max dye-equivalent concentration: active: 64 nM

Following part.

Row | Compound | max dye-equivalent concentration
47 | COc1cc(C2C(C#N)=C(N)Oc3cc(C)oc(=O)c32)cc2c1OCO2 (configuration not stated) | inactive
48 | CCOC(=O)c1c(C)[nH]c(C=Nc2ccccc2)c1O | inconclusive: 5.1 nM
49 | CCOC(=O)N1CCN(S(=O)(=O)c2ccc(F)cc2)CC1 | inactive
50 | Cc1cc(Nc2ccccc2N2CCOCC2)n2ncnc2n1 | active: 28 nM
51 | O=C(Nc1cccc(Cl)c1)Nc1nccs1 | inconclusive: 1.9 nM
52 | CCOc1ccc(Nc2oc(-c3cccs3)nc2C#N)cc1 | active: 79 nM
53 | COc1cccc(N2CCN(Cc3nc4ccccc4c(=O)[nH]3)CC2)c1 | inconclusive: 2.3 nM
54 | CCOc1cccc(-c2nnc3sc(-c4ccc(C)cc4)nn23)c1 | inconclusive: 1.6 nM
55 | CN(C)C(=O)c1ccc(-c2ccc3ncnc(Nc4ccc(F)cc4)c3c2)cc1 | inconclusive: 2.2 nM
56 | CN(Cc1nc(-c2ccncc2)no1)S(=O)(=O)c1ccccc1 | inconclusive: 2 nM
57 | O=C(NC1CCCC1)C1CC(=O)N(CCc2ccccc2)C1 (configuration not stated) | inconclusive: 8.7 nM
58 | CCOc1ccc(NC(=O)CC2NCCNC2=O)cc1 (configuration not stated) | inactive
59 | CCOC(=O)C1CCN(Cc2c(F)cccc2Cl)CC1 | inactive
60 | CCCCN(Cc1cc2cc(OC)ccc2[nH]c1=O)C(=O)c1ccco1 | active: 140 nM
61 | Cn1c(SCC(=O)Nc2ccccc2F)nnc1-c1ccc(S(=O)(=O)N2CCOCC2)cc1 | inactive
62 | COc1cc(-c2nc3oc4ccccc4c(=O)c3c(=O)n2Cc2ccco2)cc(OC)c1OC | inconclusive: 2.5 nM
63 | CCCCn1c(SCC(=O)Nc2cc(C)[nH]n2)nc2ccsc2c1=O | inconclusive: 1.7 nM
64 | O=C(O)CCCCCNc1nc2ncn(Cc3ccccc3)c2c(=O)[nH]1 | inconclusive: 1.2 nM
65 | O=C(c1cccs1)N1CCC(c2ccccc2)C1 (configuration not stated) | inconclusive: 1.4 nM
66 | CCN1CCCC1CNc1ncnc2c1[nH]c1ccc(Cl)cc12 (configuration not stated) | active: 15 nM
67 | C=CCOn1c(=O)c(-c2cc3ccccc3o2)[n+]([O-])c2ccccc21 | inconclusive: 6.5 nM
68 | O=C(Nc1ccccc1)N(CCCN1CCOCC1)Cc1ccccc1F | inconclusive: 3.2 nM
69 | COc1ccccc1-c1cc(C(F)(F)F)nc(S(=O)(=O)CCCC(=O)Nc2cc(C)on2)n1 | active: 500 nM

Row | Compound | max dye-equivalent concentration
70 | N#Cc1c(N)c(C(=O)c2ccc(Cl)cc2)n2c1CCC2 | inconclusive: 4.8 nM
71 | CCc1nc(N2CCC(C)CC2)c2oc3ccccc3c2n1 | inconclusive: 1.9 nM
72 | O=C(COC(=O)c1ccco1)Nc1ccc(Br)cc1 | inconclusive: 5.3 nM
73 | CCCC(=O)Nc1ccc(NC(=O)c2cccc(OC)c2)nc1 | inconclusive: 4.2 nM
74 | C=CCNC(=O)NC(=O)COC(=O)COc1ccc(Br)cc1F | inconclusive: 1.2 nM
75 | CCOc1nc(C)ccc1-c1noc(C)n1 | inconclusive: 1.1 nM
76 | CN(C)c1ccc(NC(=O)c2sc(SCC(=O)Nc3nccs3)nc2N)cc1 | inactive
77 | Cc1ccc(OCC(O)CN2CCN(CC(O)COC(C)C)CC2)c(C(C)(C)C)c1 (configuration not stated) | inconclusive: 1.6 nM
78 | C/C(N)=C(/C#N)C(=O)CN1CCCCC1 | inconclusive: 7.7 nM
79 | CCOc1ccc2[nH]cc(C(=O)N3CCN(CC)CC3)c(=O)c2c1 | active: 16 nM
80 | CCCCn1c(CN2CCN(CCO)CC2)nc2ccccc21 | inconclusive: 1.2 nM
81 | Cc1ccc(-c2ccccc2NC(=O)C2C3C=CC(C3)C2C(=O)O)o1 (configuration not stated) | active: 20 nM
82 | COc1ccc(OC)c(/C=N/c2oc(-c3ccco3)c(-c3ccco3)c2C#N)c1 | inconclusive: 1.6 nM
83 | Nc1nnc(SCCOc2ccc(Br)cc2)s1 | inactive
84 | CCCCN1C(=O)c2ccc(C(=O)Nc3c(N)n(CCCC)c(=O)n(C)c3=O)cc2C1=O | inconclusive: 1.5 nM
85 | OC(Cn1cncn1)c1ccc(Cl)cc1Cl (configuration not stated) | inconclusive: 6.4 nM
86 | CCCC(=O)Nc1c2c(nn1-c1ccc(OC)cc1)CS(=O)(=O)C2 | inconclusive: 3.3 nM
87 | COc1ccc(C)cc1-n1nnnc1SCC1CCCCO1 (configuration not stated) | inconclusive: 2.5 nM
88 | O=C(O)[C@@H](S)[C@H](S)C(=O)O | inactive
89 | O=c1c2ccccc2nc2sc3ccccc3n12 | active: 31 nM
90 | COc1ccc(N2CCN(CC(=O)N3CCC(C)CC3)CC2)cc1 | inconclusive: 2.9 nM
91 | COc1cc(S(=O)(=O)N2CCOCC2)c(OC)c(S(=O)(=O)N2CCOCC2)c1 | inconclusive: 1.4 nM
92 | CCc1nc2ccccc2c(=O)n1CCCCn1c(CC)nc2ccccc2c1=O | active: 11 nM
